# Reference: PubChem BioAssay AID1347426 (Functional Genomics Laboratory (NCATS/FGL), 2020)
# The whole screen tested about 31,000 sequences, of which about 1,400 (4.5%) were called active.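 Rule for the calls: active = median seed-adjusted z-score above 1 or below -1; inactive = the rest.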 This is one part of the list.
# Assay: Novel Modifiers of Survival Motor Neuron (SMN) Protein: Gene Identification via Genome-wide siRNA Screen;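 note: luminescence tracks full-length SMN protein made from the SMN2 reporter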
# Conditions: HEK293T SMN2-luciferase reporter, siRNA knockdown, 72 h; actives lie on both sides
# Outline: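 HEK293T cells stably expressing an SMN2 splicing/cDNA-luciferase reporter were reverse-transfected with a druggable-genome siRNA library and read by luminescence at 72 hours; hits defined by MAD score above 1.0 or below -1.0.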
row,Sequence,median seed-adjusted z-score
1,GAGCCUCUAUUAAUGGACATT against RASSF6,inactive: -0.592
2,CGAGAUAGGUUGCUGACUUTT against S100A2,inactive: -0.0951
3,GCGAAGACAUGUUCGAGAATT against FOXL2,inactive: -0.166
4,AGGACUACUGUAUCCUGUUTT against IMP5,inactive: 0.559
5,AGACAGAAGCUAAGGCAGATT against ZNF668,inactive: 0
6,CGGGAUCAGUUAGCAACUATT against PRKAA1,inactive: 0.0423
7,GCAAUUUUGGGUACUCGUATT against TSTA3,inactive: 0.155
8,CGUUCCGACUCUGACCAGATT against SEMA3G,inactive: 0.00615
9,CCGCAGAUCCUGUAGACUATT against PARD3B,inactive: 0.306
10,GAGUGCUCAUAUACCCAGATT against TFR2,inactive: 0.965
11,UCGCUACUCCGUAUGGGUATT against ASMTL,inactive: -0.0375
12,AAGUGGUACUAGGAUUAUATT against LSM8,inactive: -0.44
13,AGGCAUAUCUUGAAGAACATT against CIP29,active: -1.18
14,GCAUGAUCGGGAGGGUUUATT against PPID,inactive: -0.206
15,CAACCAUGCAACUUCGAAATT against JARID1D,inactive: 0.293
16,CAUCGAGGGUGGACUGAUATT against RGL1,inactive: 0.0217
17,CGGGUGCACUACUACAUCUTT against GBGT1,inactive: 0.48
18,GGGCGCAAAUUAUACCUAATT against ZNF610,inactive: 0.432
19,GGACUUCAAUAUCGCAGUATT against PLCE1,inactive: 0.597
20,CAGUGUAUUUGAUUCCGAUTT against SOS1,inactive: 0
21,ACAUCACUGCGGAGGCUUCTT against PRSSL1,inactive: -0.221
22,GCAUAUCAGACGUACAAGATT against SLC10A6,inactive: -0.803
23,GGUCCUCAUUGAAAACGAATT against BTBD11,inactive: -0.00434
24,GAGUACAUGUACUACCUGATT against RFX1,inactive: 0.818
25,AGCUCUCCACAGAUCUGAATT against AGAP3,inactive: 0.554
26,CCUUCUAUCAUGUAAGCUATT against IL1A,active: 1.12
27,CUGCUCUAAUUACACCGUATT against CILP,inactive: 0.0436

row,Sequence,median seed-adjusted z-score
1,CAUGGAACCCAGAGACUUATT against GDPD2,inactive: -0.0868
2,GGGUCAUCAGUAGCAUUGATT against YWHAG,active: 1.98
3,CGACUAGAGAGCUACAGGATT against CCL11,inactive: -0.221
4,GGACCUGUCUUAACAGUAATT against VNN1,inactive: 0.549
5,ACAACGAGCCUGAGAAGGATT against DLX2,inactive: -0.527
6,ACUUUGAAGGCUUAACGAUTT against PMS2L3,inactive: 0.175
7,CUACUUUGCUUUCAUCACUTT against KCNK16,inactive: 0
8,GAGACAACCAAAAAGUGCATT against GUSB,inactive: -0.542
9,CCUUCUACAUCGGCAGCUATT against COPE,inactive: 0.499
10,CAGCCGUACCAGAAAUAAATT against CD7,inactive: 0.249
11,CGAUCAACCAGAUGACGAUTT against APPL2,inactive: -0.245
12,GGACAACUAUAAGGAGUUATT against SLC37A2,inactive: 0.134
13,CCGUAAAGCUGCAUUAGAATT against CUGBP1,inactive: 0.086
14,CAGCGUGUAUGGACCAGAUTT against B9D1,inactive: -0.161
15,GGUAUCGAAUGAUAACAGATT against YARS2,inactive: 0.0901
16,GGUGGUAUCCUGUUCACAATT against TM9SF4,inactive: -0.0191
17,CCGUGGUUACAGAAACGUATT against ABHD3,inactive: -0.126
18,AGAUCUACCCAGACCCGGATT against TRAF4,active: -1.16
19,CACUUCUACUAUUUCGUCATT against MOBKL2A,inactive: 0.268
20,GCACCUCCACAGAGAGAAATT against MCAM,inactive: -0.0884
21,AGCCAUGUUUGGGCCUAAATT against CRIP1,inactive: -0.622
22,GCCUGAAACUGGAGCCUCATT against SLC3A2,inactive: -0.0428
23,AAUCAACUGCUGGACGAGATT against COL13A1,inactive: -0.112
24,CGAGAGGGCUGUUUCCAAATT against LIMS3,inactive: -0.078
25,GAAUUGGAGUGAUUCGAAUTT against NETO2,inactive: -0.136
26,GAAGAAACCCGAGUGCAAATT against RARRES2,inactive: -0.125
27,CCCUGUCACGGUACACUUUTT against CHRNA6,inactive: 0.21

# Part of the list above, set out differently:
row | Sequence | median seed-adjusted z-score
15 | GGUAUCGAAUGAUAACAGATT against YARS2 | inactive: 0.0901
16 | GGUGGUAUCCUGUUCACAATT against TM9SF4 | inactive: -0.0191
25 | GAAUUGGAGUGAUUCGAAUTT against NETO2 | inactive: -0.136
